Measurements: the supplement of paper PMC7238544
Structures can show the parent of a compound that is named as a salt. ± gives the standard deviation of the averaged measurements. The list shows a part of the results. The data scatter; read single values as rough.

What was measured:
hAMSC donor 1 [1] = test: Hoechst total cell count ratio vs vehicle control; higher = more cells (less toxicity)
hAMSC donor 2 [2] = test: as above
hAMSC donor 1 [3] = test: transgenic luciferase activity (RLU/mg protein) fold change vs vehicle control (ratio); higher = more transgene expression
hAMSC donor 2 [4] = test: as above
hAMSC donor 1 [5] = test: transfection efficiency (EGFP+ cells / Hoechst count) fold change vs vehicle control (ratio); hAMSC are human adipose-derived mesenchymal stem cells given an EGFP-luciferase plasmid by lipofection; higher = enhanced transfection
hAMSC donor 2 [6] = test: as above
[7] = priming compound concentration 0.2 µM
[8] = priming compound concentration 1.7 µM
[9] = priming compound concentration 13 µM

Structure (SMILES) | Hoechst total cell count ratio (hAMSC donor 1 [1]; [7]) | Hoechst total cell count ratio (hAMSC donor 1 [1]; [8]) | Hoechst total cell count ratio (hAMSC donor 1 [1]; [9]) | Hoechst total cell count ratio (hAMSC donor 2 [2]; [7]) | Hoechst total cell count ratio (hAMSC donor 2 [2]; [8]) | Hoechst total cell count ratio (hAMSC donor 2 [2]; [9]) | transgenic luciferase activity (hAMSC donor 1 [3]; [9]) | transgenic luciferase activity (hAMSC donor 2 [4]; [7]) | transgenic luciferase activity (hAMSC donor 2 [4]; [8]) | transgenic luciferase activity (hAMSC donor 2 [4]; [9]) | transfection efficiency (hAMSC donor 1 [5]; [7]) | transfection efficiency (hAMSC donor 1 [5]; [8]) | transfection efficiency (hAMSC donor 1 [5]; [9]) | transfection efficiency (hAMSC donor 2 [6]; [7]) | transfection efficiency (hAMSC donor 2 [6]; [8]) | transfection efficiency (hAMSC donor 2 [6]; [9]) | transgenic luciferase activity (hAMSC donor 1 [3]; [8])
CC(=O)OCC(=O)[C@@]1(O)CC[C@H]2[C@@H]3CCC4=CC(=O)CC[C@]4(C)[C@H]3[C@@H](O)C[C@@]21C [Cortisol 21-acetate] | 1.38 ± 0.048 | 2.2 ± 0.15 | 1.53 ± 0.15 | 1.19 ± 0.073 | 1.07 ± 0.058 | 1.03 ± 0.21 | 5.07 ± 1.3 | 0.952 ± 0.22 | 2.14 ± 0.038 | 2.96 ± 0.99 | 0.839 ± 0.09 | 1.12 ± 0.29 | 1.09 ± 0.25 | 1.18 ± 0.21 | 1.5 ± 0.27 | 1.39 ± 0.3 | 
C[C@H]1COc2c(N3CCN(C)CC3)c(F)cc3c(=O)c(C(=O)O)cn1c23 [Levofloxacin] | 1.07 ± 0.13 | 1.09 ± 0.11 | 1.16 ± 0.15 | 0.887 ± 0.22 | 1.66 ± 0.063 | 2.38 ± 0.55 |  | 0.36 ± 0.059 | 0.355 ± 0.016 | 0.151 ± 0.04 | 1.48 ± 0.62 | 1.12 ± 0.33 | 0.898 ± 0.34 | 1.31 ± 0.28 | 0.763 ± 0.069 | 1.14 ± 0.089 | 2.19 ± 0.92
Oc1c(Cl)cc(Cl)c(Cl)c1Cc1c(O)c(Cl)cc(Cl)c1Cl [Hexachlorophene] | 1.35 ± 0.014 | 1.35 ± 0.16 | 1.32 ± 0.12 | 1.07 ± 0.19 | 0.934 ± 0.044 | 1.5 ± 0.18 | 0.3 ± 0.13 | 0.754 ± 0.12 | 0.49 ± 0.16 | 0.537 ± 0.15 | 0.743 ± 0.026 | 1.14 ± 0.11 | 0.694 ± 0.44 | 0.972 ± 0.16 | 0.97 ± 0.13 | 0.438 ± 0.046 | 
CC(=O)O[C@@]12CO[C@@H]1C[C@H](O)[C@@]1(C)C(=O)[C@H](O)C3=C(C)[C@@H](OC(=O)[C@H](O)[C@@H](NC(=O)OC(C)(C)C)c4ccccc4)C[C@@](O)([C@@H](OC(=O)c4ccccc4)[C@H]21)C3(C)C [Docetaxel] | 0.48 ± 0.096 | 0.497 ± 0.079 | 0.508 ± 0.054 | 0.52 ± 0.26 | 0.607 ± 0.21 | 0.627 ± 0.18 |  | 0.256 ± 0.042 | 0.394 ± 0.01 | 0.109 ± 0.033 | 3.2 ± 0.69 | 4 ± 0.22 | 2.88 ± 0.82 | 0.639 ± 0.15 | 0.866 ± 0.35 | 0.52 ± 0.36 | 3.46 ± 1.7
CC1(C)S[C@@H]2[C@H](NC(=O)COc3ccccc3)C(=O)N2[C@H]1C(=O)O [Penicillin V] | 1.04 ± 0.1 | 1.27 ± 0.27 | 1.14 ± 0.095 | 1.05 ± 0.085 | 1.06 ± 0.019 | 1.03 ± 0.088 | 0.518 ± 0.11 | 1.16 ± 0.54 | 1.01 ± 0.12 | 1 ± 0.052 | 0.883 ± 0.17 | 1.32 ± 0.75 | 1.02 ± 0.26 | 1.37 ± 0.13 | 1.24 ± 0.11 | 1.27 ± 0.16 | 
CC[C@H]1OC(=O)[C@H](C)[C@@H](O[C@H]2C[C@@](C)(OC)[C@@H](O)[C@H](C)O2)[C@H](C)[C@@H](O[C@@H]2O[C@H](C)C[C@H](N(C)C)[C@H]2O)[C@](C)(O)C[C@@H](C)CN(C)[C@H](C)[C@@H](O)[C@]1(C)O [Azithromycin] | 1.14 ± 0.044 | 1.12 ± 0.18 | 1.07 ± 0.12 | 0.861 ± 0.24 | 0.926 ± 0.47 | 2.18 ± 0.29 |  | 0.77 ± 0.14 | 3.3 ± 2 | 0.238 ± 0.28 | 1.21 ± 0.11 | 1.47 ± 0.29 | 1 ± 0.083 | 1.35 ± 0.13 | 1.01 ± 0.074 | 1.07 ± 0.1 | 2.85 ± 1.1
CC(=O)[C@@]1(O)CC[C@H]2[C@@H]3C[C@H](C)C4=CC(=O)C=C[C@]4(C)[C@@]3(F)[C@@H](O)C[C@@]21C [Fluorometholone] | 1.61 ± 0.11 | 1.76 ± 0.077 | 1.09 ± 0.03 | 1.15 ± 0.075 | 1.01 ± 0.035 | 0.753 ± 0.057 | 15.8 ± 0.42 | 3.79 ± 1 | 3.05 ± 0.83 | 3.77 ± 1.5 | 1.33 ± 0.15 | 1.13 ± 0.054 | 2.36 ± 0.3 | 1.41 ± 0.17 | 1.74 ± 0.3 | 1.97 ± 0.37 | 
CC(=O)[C@H]1CC[C@H]2[C@@H]3C[C@H](C)C4=CC(=O)CC[C@]4(C)[C@H]3[C@@H](O)C[C@]12C [Medrysone] | 1.08 ± 0.086 | 1.27 ± 0.086 | 1.08 ± 0.12 | 1.33 ± 0.29 | 2.1 ± 0.1 | 3.75 ± 0.24 |  | 0.902 ± 0.16 | 1.1 ± 0.21 | 0.219 ± 0.079 | 1.41 ± 0.41 | 1.24 ± 0.26 | 0.937 ± 0.12 | 1.57 ± 0.34 | 1.04 ± 0.14 | 1.21 ± 0.12 | 5.59 ± 2.4
CNCCC=C1c2ccccc2CCc2ccccc21 [Nortriptyline hydrochloride] | 1.28 ± 0.2 | 1.14 ± 0.086 | 1.25 ± 0.12 | 1.21 ± 0.31 | 1.32 ± 0.12 | 2.38 ± 0.21 |  | 0.485 ± 0.032 | 0.513 ± 0.12 | 0.139 ± 0.068 | 1.04 ± 0.41 | 1.79 ± 0.42 | 0.559 ± 0.092 | 1.41 ± 0.07 | 0.938 ± 0.2 | 0.916 ± 0.082 | 0.694 ± 0.38
CNCCC(Oc1ccc(C(F)(F)F)cc1)c1ccccc1 (stereo not given) [Fluoxetine hydrochloride] | 1.43 ± 0.27 | 1.49 ± 0.22 | 1.49 ± 0.032 | 1.13 ± 0.083 | 1.12 ± 0.12 | 1.04 ± 0.086 | 0.292 ± 0.068 | 0.969 ± 0.13 | 0.953 ± 0.064 | 0.48 ± 0.078 | 0.736 ± 0.17 | 1.3 ± 0.28 | 0.777 ± 0.13 | 1 ± 0.18 | 1.18 ± 0.11 | 0.719 ± 0.14 | 
N[C@@H](Cc1cc(I)c(Oc2ccc(O)c(I)c2)c(I)c1)C(=O)O [3,5,3'-Triiodothyronine] | 1.09 ± 0.092 | 1.11 ± 0.16 | 1.07 ± 0.25 | 1.3 ± 0.41 | 1.32 ± 0.17 | 1.39 ± 0.33 |  | 0.872 ± 0.26 | 0.907 ± 0.059 |  | 1.24 ± 0.6 | 1.3 ± 0.12 | 1.65 ± 0.3 | 1.06 ± 0.32 | 1.14 ± 0.21 | 1.15 ± 0.35 | 0.94 ± 0.079
CCCc1nc2c(C)cc(-c3nc4ccccc4n3C)cc2n1Cc1ccc(-c2ccccc2C(=O)O)cc1 [Telmisartan] | 1.27 ± 0.056 | 1.25 ± 0.22 | 1.2 ± 0.047 | 1.11 ± 0.21 | 1.06 ± 0.095 | 0.986 ± 0.18 |  |  | 0.437 ± 0.38 | 0.903 ± 0.07 | 0.972 ± 0.22 | 0.857 ± 0.15 | 1.61 ± 0.41 | 0.753 ± 0.089 | 0.976 ± 0.07 | 0.982 ± 0.11 | 0.974 ± 0.42
O=c1c(-c2ccccc2)c1-c1ccccc1 [Diphenylcyclopropenone] | 1.12 ± 0.039 | 1.01 ± 0.048 | 0.739 ± 0.038 | 1.34 ± 0.16 | 1.07 ± 0.15 | 0.342 ± 0.17 |  | 0.663 ± 0.27 | 0.831 ± 0.09 |  | 1.18 ± 0.26 | 1.22 ± 0.21 | 2.28 ± 0.41 | 0.813 ± 0.068 | 1.38 ± 0.66 | 1.59 ± 0.32 | 1.14 ± 0.3
CC(C)NCC(O)COc1cccc2ccccc12 (stereo not given) [Propranolol hydrochloride] | 1.56 ± 0.089 | 1.26 ± 0.036 | 1.25 ± 0.1 | 1.08 ± 0.035 | 1.16 ± 0.13 | 1.32 ± 0.16 | 0.978 ± 0.15 | 0.763 ± 0.27 |  | 0.676 ± 0.4 | 0.737 ± 0.28 | 1.07 ± 0.28 | 1.16 ± 0.28 | 1.02 ± 0.13 | 0.868 ± 0.14 | 0.817 ± 0.14 | 

Gathered by group: those above containing nitrogen in an aromatic ring.
Structure (SMILES) | Hoechst total cell count ratio (hAMSC donor 1 [1]; [7]) | Hoechst total cell count ratio (hAMSC donor 1 [1]; [8]) | Hoechst total cell count ratio (hAMSC donor 1 [1]; [9]) | Hoechst total cell count ratio (hAMSC donor 2 [2]; [7]) | Hoechst total cell count ratio (hAMSC donor 2 [2]; [8]) | Hoechst total cell count ratio (hAMSC donor 2 [2]; [9]) | transgenic luciferase activity (hAMSC donor 1 [3]; [9]) | transgenic luciferase activity (hAMSC donor 2 [4]; [7]) | transgenic luciferase activity (hAMSC donor 2 [4]; [8]) | transgenic luciferase activity (hAMSC donor 2 [4]; [9]) | transfection efficiency (hAMSC donor 1 [5]; [7]) | transfection efficiency (hAMSC donor 1 [5]; [8]) | transfection efficiency (hAMSC donor 1 [5]; [9]) | transfection efficiency (hAMSC donor 2 [6]; [7]) | transfection efficiency (hAMSC donor 2 [6]; [8]) | transfection efficiency (hAMSC donor 2 [6]; [9]) | transgenic luciferase activity (hAMSC donor 1 [3]; [8])
C[C@H]1COc2c(N3CCN(C)CC3)c(F)cc3c(=O)c(C(=O)O)cn1c23 [Levofloxacin] | 1.07 ± 0.13 | 1.09 ± 0.11 | 1.16 ± 0.15 | 0.887 ± 0.22 | 1.66 ± 0.063 | 2.38 ± 0.55 |  | 0.36 ± 0.059 | 0.355 ± 0.016 | 0.151 ± 0.04 | 1.48 ± 0.62 | 1.12 ± 0.33 | 0.898 ± 0.34 | 1.31 ± 0.28 | 0.763 ± 0.069 | 1.14 ± 0.089 | 2.19 ± 0.92
CCCc1nc2c(C)cc(-c3nc4ccccc4n3C)cc2n1Cc1ccc(-c2ccccc2C(=O)O)cc1 [Telmisartan] | 1.27 ± 0.056 | 1.25 ± 0.22 | 1.2 ± 0.047 | 1.11 ± 0.21 | 1.06 ± 0.095 | 0.986 ± 0.18 |  |  | 0.437 ± 0.38 | 0.903 ± 0.07 | 0.972 ± 0.22 | 0.857 ± 0.15 | 1.61 ± 0.41 | 0.753 ± 0.089 | 0.976 ± 0.07 | 0.982 ± 0.11 | 0.974 ± 0.42
